In PMC3358304 one finds binding data, which are given here for two molecules.

The chains behind the UniProt entries cited, without tags or fusion partners. Where a name states a change or a piece, a line headed by the entry shows the natural chain unless it says otherwise.
UniProt P31749: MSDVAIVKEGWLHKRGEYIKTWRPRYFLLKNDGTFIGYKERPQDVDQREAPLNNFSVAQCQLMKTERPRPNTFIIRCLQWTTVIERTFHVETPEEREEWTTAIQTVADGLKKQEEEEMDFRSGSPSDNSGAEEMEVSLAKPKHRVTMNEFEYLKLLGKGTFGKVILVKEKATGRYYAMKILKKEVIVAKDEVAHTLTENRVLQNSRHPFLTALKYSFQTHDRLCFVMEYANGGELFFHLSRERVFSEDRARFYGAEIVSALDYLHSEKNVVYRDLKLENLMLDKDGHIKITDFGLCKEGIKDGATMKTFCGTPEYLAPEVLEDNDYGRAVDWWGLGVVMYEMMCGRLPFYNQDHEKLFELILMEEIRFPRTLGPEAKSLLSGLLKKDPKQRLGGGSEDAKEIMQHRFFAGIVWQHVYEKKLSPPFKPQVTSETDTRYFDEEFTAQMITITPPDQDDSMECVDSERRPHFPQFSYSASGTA

No constants are given. Whether binding was seen depends on the method and setting. Binding seen in cells or lysates may run through a third protein. Some results given as binding are weak or reduced against the parent protein; the word gives no strength.

Holding throughout (assay): co-IP; MCF-7 cells transfected with Flag-HA-Akt or its mutants and treated by IGF-1; Akt immunoprecipitated with anti-Flag agarose, precipitate probed against Akt and PDK1
Assay [1] concerns the target wild-type Akt (human AKT1, Flag-HA-AKT1) (human), P31749. Conditions: remark: other sources report otherwise.
The target of assay [2] is Akt T305A mutant (Flag-HA-AKT1 T305A) (human) (UniProt P31749).
Assay [3] deals with Akt T312A mutant (Flag-HA-AKT1 T312A) (human) (UniProt P31749).

B1: phosphoinositide-dependent kinase 1 (PDK1), O15530 1-556 (enzyme)
chain: MARTTSQLYDAVPIQSSVVLCSCPSPSMVRTQTESSTPPGIPGGSRQGPAMDGTAAEPRPGAGSLQHAQPPPQPRKKRPEDFKFGKILGEGSFSTVVLARELATSREYAIKILEKRHIIKENKVPYVTRERDVMSRLDHPFFVKLYFTFQDDEKLYFGLSYAKNGELLKYIRKIGSFDETCTRFYTAEIVSALEYLHGKGIIHRDLKPENILLNEDMHIQITDFGTAKVLSPESKQARANSFVGTAQYVSPELLTEKSACKSSDLWALGCIIYQLVAGLPPFRAGNEYLIFQKIIKLEYDFPEKFFPKARDLVEKLLVLDATKRLGCEEMEGYGPLKAHPFFESVTWENLHQQTPPKLTAYLPAMSEDDEDCYGNYDNLLSQFGCMQVSSSSSSHSLSASDTGLPQRSGSNIEQYIHDLDSNSFELDLQFSEDEKRLLLEKQAGGNPWHQFVENNLILKMGPVDKRKGLFARRRQLLLTEGPHLYYVDPVNKVLKGEIPWSQELRPEAKNFKTFFVHTPNRTYYLMDPSGNAHKWCRKIQEVWRQRYQSHPDAAVQ
As to B1, the binding result in assay [1] is on record as “binds”.

B2: phosphoinositide-dependent kinase 1 (PDK1) (enzyme, UniProt O15530 1-556)
chain: B1 chain
With B2, the binding entry in assay [2] and in assay [3] was “binds” throughout.
